Source: US12247972B2 (priority 2018, dated 2025)

System: CHO cells transiently expressing SCN5A (Nav1.5), CACNα1C (Cav1.2), KCNH2 and ChRWR

CCN(CC)CC(=O)Nc1c(C)cccc1C [Lidocaine]
effect on action potential (sodium channel suppression): all action potentials disappeared
